Measurements taken from US20250189530A1 (STCUBE, published 2025).
Changes are numbered by the printed parent chain. Results are given in words; binding and its absence hold for the method and conditions named. Some binding calls cover weakened binding; strength is not graded here. Tags and fused reporters may be left off the sequences shown.

B1: STC43G3-1 (antibody, V domains shown)
VH: QSLEESGGRLVTPGTPLTLTCTVSGIDLSRYGVNWVRQAPGKGLEWIGYIGTTGNTYYASWVNGRFTISKTSTTVELKMTSLTAADTATYFCARSVVSPSNSSFWGQGTLVTVSS
VL: DPVMTQTPSSTSAAVGGTVTINCQSSQSVYNNNNLSWFQQKPGQPPKLLIYRASKLPSGVPPRFSGSGSGTQFTLTISSVQCDDAATYFCAGGYSGDINVFGGGTEVVVK
notes: From immunized New Zealand rabbits; IgG heavy chain and Kappa light chain; Variable domains without signal peptide; also called clone #43G3-1
B2: STC85F1-1 (antibody, V domains shown)
VH: QSLEESGGRLVTPGGSLTLTCTVSGIDLSRYGVNWVRQAPGKGLEWIGYIGTTSNTYYASWAKGRFTISKTSSTTVDLKMTSLTTEDTATYFCARSVVSPSNSSFWGQGTLVTVSS
VL: B1 VL with N33K, K55T, P62S, S65K, S79D, V80L, Q81E, F89Y
notes: From immunized New Zealand rabbits; IgG heavy chain and Kappa light chain; Variable domains without signal peptide; also called clone #85F1-1

Experiments:
hBTN1A1-His = biological target: T1, hBTN1A1-His (human, UniProt Q13410); assay: ELISA, titration of purified antibody
T1 construct: also called human BTN1A1-His
T1 sequence (antigen, looked up): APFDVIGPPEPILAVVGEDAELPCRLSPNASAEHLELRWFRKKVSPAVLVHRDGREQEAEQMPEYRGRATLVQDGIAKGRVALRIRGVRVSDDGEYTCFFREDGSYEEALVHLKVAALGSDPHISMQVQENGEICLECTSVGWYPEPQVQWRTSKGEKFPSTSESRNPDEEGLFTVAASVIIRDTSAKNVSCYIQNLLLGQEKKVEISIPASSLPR

[1] = biological target: T2, Denatured hBTN1A1-His (human) (UniProt Q13410); assay: ELISA, titration of purified antibody
T2 sequence (antigen, looked up): T1 sequence (antigen, looked up)

Row | Binder | binding (hBTN1A1-His) | binding [1]
1 | B1 | binds | binds
2 | B2 | binds | binds
